# About 760 (0.19%) of roughly 390,000 compounds were called active. Inconclusive means that the source gave no clear call. Such entries were picked first, then a sample of the others. Calls come from the whole dose curve; as a rule, active = well fitted inhibition curve with a large enough effect; inconclusive = small, poorly fitted or top-dose-only effect; inactive = flat fitted curve, though single readings scatter. Potencies beside an inconclusive call are fits to weak or partial responses and may not hold up.
# Assay: qHTS for Inhibitors of Vif-A3F Interactions: qHTS; note: nearly all actives have a fitted effect of over 65% in size
# Conditions: HeLa A3F-eYFP + Vif (tagged APOBEC3F with the HIV-1 protein that degrades it), YFP fluorescence increase; series mostly up to 46.1 µM
# Summary of the method: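 HeLa cells stably expressing A3F-eYFP plus Vif, plated and incubated overnight at 37 deg C, then exposed to compounds overnight at 37 deg C. Blocked degradation read as raised yellow fluorescence (Ex 488/Em 500-530).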
# Potency is the fitted concentration of half-maximal effect.
row,SMILES,Potency
1,O=C(Nc1ccc(N2CCOCC2)c2nonc12)C1CCCC1,inactive
2,CN(C(=O)c1ccc(NC(=O)Cc2cccc([N+](=O)[O-])c2)cc1)C1CCCC1,inactive
3,O=C(NCCc1ccccc1)c1c(F)cccc1F,"inconclusive: 1.41 µM [inhibitor, partial curve, poor fit]"
4,CC(=O)N1N=C(c2ccc(Br)cc2)CC1c1ccc(Br)cc1 (configuration not stated),inactive
5,Cc1ccc(CSCC(=O)N(CCC(C)C)c2c(N)n(Cc3ccccc3)c(=O)[nH]c2=O)cc1,"inconclusive: 35.5 µM [inhibitor, single point]"
6,COc1ccc(NC(=O)Cn2ncc(Cl)c(Cl)c2=O)cc1S(=O)(=O)N1CCOCC1,"inconclusive: 12.6 µM [inhibitor, partial curve, poor fit]"
7,Nc1c(C(=O)Nc2ccc(S(=O)(=O)N3CCCC3)cc2)sc2nc3cc4c(cc3cc12)CCC4,active: 10 µM
8,Cc1cc(C)c2cc3c(N)c(C(=O)N4CCc5ccccc5C4)sc3nc2c1,"inconclusive: 31.6 µM [inhibitor, single point]"
9,O=C(/C=C/c1ccccc1)Nc1cccnc1,inactive
10,Fc1ccc(CSc2nc(NCc3ccccc3)c3ccccc3n2)cc1,inactive
11,O=C(O)c1ccc(COc2ccccc2C=C2C(=O)c3ccccc3C2=O)cc1,"inconclusive: 35.5 µM [inhibitor, single point]"
12,Cc1ccc(NC(=O)Cc2ccc(Cl)cc2)nc1,inactive
13,C=CCOc1c(Br)cc(/C=C2\SC(=Nc3ccccc3)NC2=O)cc1OC,"inconclusive: 25.1 µM [inhibitor, single point]"
14,COc1ccc([N+](=O)[O-])cc1NC(=O)CC1SC(=Nc2cccc(C)c2C)N(/N=C/c2cccc(OC)c2OC)C1=O (configuration not stated),"inconclusive: 5.62 µM [inhibitor, single point]"
15,COc1ccc(C2NN=C(c3c[nH]c4ccccc34)C2O)cc1 (configuration not stated),active: 22.4 µM
16,CS(=O)(=O)N(Cc1ccccc1Cl)c1ccc(C(=O)NCc2cccnc2)cc1,"inconclusive: 5.62 µM [inhibitor, single point]"
17,CCCC(=O)Nc1nnc(S(=O)(=O)N(C)Cc2ccc(Cl)cc2)s1,inactive
18,Cc1cccc(Cn2c(=O)n3nc(-c4ccccc4)nc3c3ccccc32)c1,inactive
19,CCN1CCCC(OC(=O)c2cc(-c3ccc(C)cc3)nc3ccccc23)C1 (configuration not stated),"inconclusive: 35.5 µM [inhibitor, partial curve, poor fit]"
20,Cc1cc(C)cc(C(=O)NCC(=O)OCC(=O)Nc2cccnc2Cl)c1,"inconclusive: 6.31 µM [inhibitor, single point]"
21,O=C(Nc1cccnc1)c1ccc(COc2ccccc2Br)o1,inactive
22,COC(=O)c1c(NC(=O)c2ccc(S(=O)(=O)N3CCC(C)CC3)cc2)sc2c1CCN(C)C2,"inconclusive: 35.5 µM [inhibitor, single point]"
23,N#C/C(=C\c1cccnc1)C(=O)NC1CCCCC1,inactive
24,COC(=O)c1ccc2c(c1)NC(=O)C(N(CC(C)C)CC(C)C)S2 (configuration not stated),"inconclusive: 12.6 µM [inhibitor, single point]"

row,SMILES,Potency
1,Cc1cc(/C=C(\C#N)C(=O)O)c(C)n1-c1ccc(Br)cc1,"inconclusive: 35.5 µM [inhibitor, partial curve, poor fit]"
2,CCOc1ccc(CCNC(=O)c2cc3cccc4c3n2CCS4)cc1,inactive
3,CC(=O)c1c(C)oc2ccc(N(C(C)=O)S(=O)(=O)c3cccc4cccnc34)cc12,"inconclusive: 35.5 µM [inhibitor, single point]"
4,CN(CC(=O)Nc1ccc(F)cc1)C(=O)CCc1nc2sc3c(c2c(=O)[nH]1)CCCC3,"inconclusive: 35.5 µM [inhibitor, single point]"
5,Cc1cc(SCC(=O)NCc2ccc(Cl)cc2)nc(=O)[nH]1,inactive
6,Cc1ccc(C(C)(c2ccc(N)cc2)c2ccc(N)cc2)cc1,"inconclusive: 4.47 µM [inhibitor, single point]"
7,CCCCN1/C(=C/c2ccc3ccccc3[n+]2CC)Sc2ccccc21,"inconclusive: 0.631 µM [inhibitor, full curve, poor fit]"
8,COc1ccc(C(C(=O)NC2CCCC2)N(C(=O)c2snc(C(N)=O)c2N)c2ccccc2OC)cc1OC (configuration not stated),inactive
9,NC(N)=NC(N)=Nc1ccc(O)cc1,inactive
10,CC1(C)N=C(N)NC(Nc2ccccc2Cl)=N1,"inconclusive: 3.16 µM [inhibitor, single point]"
11,O=P(c1ccccc1)(c1ccccc1)c1ccc(O)cc1,"inconclusive: 5.62 µM [inhibitor, single point]"
12,CC(C)c1ccc(C2OCCCO2)cc1,"inconclusive: 35.5 µM [inhibitor, single point]"
13,COC(=O)c1cc2occc2n1Cc1nc(-c2ccccc2)oc1C,inactive
14,CCC(CNc1cc(OC)cc2cccnc12)NC1CCCCC1 (configuration not stated),"inconclusive: 35.5 µM [inhibitor, single point]"
15,COc1cc2nc(NCCCN3CCN(C)CC3)n3nc(-c4ccccc4)nc3c2cc1OC,inactive
16,CC(C)NC(=S)N/N=C1\CCCCc2ccccc21,"inconclusive: 3.55 µM [inhibitor, full curve, poor fit]"
17,COc1ccc(NC(=O)c2sc3nc4c(cc3c2N)CN(Cc2ccccc2)CC4)c(OC)c1,active: 11.2 µM
18,O=[N+]([O-])c1cc(S(=O)(=O)Nc2ccccc2)ccc1N1CCN(c2ccccc2)CC1,"inconclusive: 35.5 µM [inhibitor, single point]"
19,COc1cccc2c1C(=O)c1c(O)c3c(c(O)c1C2=O)C[C@@](O)(C(=O)CO)C[C@@H]3O[C@H]1C[C@H](N)[C@H](O)[C@H](C)O1,inactive
20,Cc1ccccc1C(=O)NC(=S)NCCN1CCOCC1,inactive
21,C=C1c2nc3ccccc3n2C=C(c2ccc(C)cc2)N1c1ccccc1,inactive
22,COc1ccc(OC)c(/C=C/C(=O)N2C(=O)c3cccc(N)c3C2=O)c1,inactive
23,COc1ccc(/C=N/NC(=O)Cc2csc(Nc3cccc(C(F)(F)F)c3)n2)cc1C,"inconclusive: 25.1 µM [inhibitor, single point]"

# 3 entries from above in another layout:
row | SMILES | Potency
13 | C=CCOc1c(Br)cc(/C=C2\SC(=Nc3ccccc3)NC2=O)cc1OC | inconclusive: 25.1 µM [inhibitor, single point]
20 | Cc1cc(C)cc(C(=O)NCC(=O)OCC(=O)Nc2cccnc2Cl)c1 | inconclusive: 6.31 µM [inhibitor, single point]
22 | COC(=O)c1c(NC(=O)c2ccc(S(=O)(=O)N3CCC(C)CC3)cc2)sc2c1CCN(C)C2 | inconclusive: 35.5 µM [inhibitor, single point]
